Laboratory results: article doi:10.1101/2023.09.25.556595
Where two headings read alike, the source gives them in different places. These are yes or no findings as the source states them, for the method shown. Binding seen in cells or lysates may run through a third protein. Some binding calls cover weakened binding; strength is not graded here. Sequences can lack the tags named with a protein.

Columns and labels:
Test in all cases: co-IP
[1] = target: T1, 3XFLAG-FIGNL1, full length (human) (UniProt Q6PIW4)
T1 sequence: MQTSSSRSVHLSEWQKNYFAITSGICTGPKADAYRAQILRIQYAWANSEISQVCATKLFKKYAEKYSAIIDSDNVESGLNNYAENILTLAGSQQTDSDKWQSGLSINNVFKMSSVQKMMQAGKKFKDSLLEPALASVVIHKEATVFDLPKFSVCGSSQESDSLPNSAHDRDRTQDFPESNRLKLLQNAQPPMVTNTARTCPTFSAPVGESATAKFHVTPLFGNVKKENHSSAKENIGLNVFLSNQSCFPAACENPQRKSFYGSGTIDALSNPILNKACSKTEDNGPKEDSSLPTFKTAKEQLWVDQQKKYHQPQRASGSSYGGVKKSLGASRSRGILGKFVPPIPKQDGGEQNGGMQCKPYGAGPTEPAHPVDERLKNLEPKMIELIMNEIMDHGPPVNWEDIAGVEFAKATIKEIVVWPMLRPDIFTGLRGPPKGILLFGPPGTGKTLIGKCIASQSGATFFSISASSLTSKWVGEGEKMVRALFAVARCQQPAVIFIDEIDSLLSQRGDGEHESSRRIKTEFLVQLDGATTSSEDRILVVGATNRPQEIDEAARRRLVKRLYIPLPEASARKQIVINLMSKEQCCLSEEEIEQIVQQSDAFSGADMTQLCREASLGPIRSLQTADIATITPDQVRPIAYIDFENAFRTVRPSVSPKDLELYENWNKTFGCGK

[2] = target: T1, 3XFLAG-FIGNL1, full length (human); remark: listed apart in the source
[3] = target: T2, 3XFlag-RADIF, full length (UniProt Q9NSG2)
T2 sequence: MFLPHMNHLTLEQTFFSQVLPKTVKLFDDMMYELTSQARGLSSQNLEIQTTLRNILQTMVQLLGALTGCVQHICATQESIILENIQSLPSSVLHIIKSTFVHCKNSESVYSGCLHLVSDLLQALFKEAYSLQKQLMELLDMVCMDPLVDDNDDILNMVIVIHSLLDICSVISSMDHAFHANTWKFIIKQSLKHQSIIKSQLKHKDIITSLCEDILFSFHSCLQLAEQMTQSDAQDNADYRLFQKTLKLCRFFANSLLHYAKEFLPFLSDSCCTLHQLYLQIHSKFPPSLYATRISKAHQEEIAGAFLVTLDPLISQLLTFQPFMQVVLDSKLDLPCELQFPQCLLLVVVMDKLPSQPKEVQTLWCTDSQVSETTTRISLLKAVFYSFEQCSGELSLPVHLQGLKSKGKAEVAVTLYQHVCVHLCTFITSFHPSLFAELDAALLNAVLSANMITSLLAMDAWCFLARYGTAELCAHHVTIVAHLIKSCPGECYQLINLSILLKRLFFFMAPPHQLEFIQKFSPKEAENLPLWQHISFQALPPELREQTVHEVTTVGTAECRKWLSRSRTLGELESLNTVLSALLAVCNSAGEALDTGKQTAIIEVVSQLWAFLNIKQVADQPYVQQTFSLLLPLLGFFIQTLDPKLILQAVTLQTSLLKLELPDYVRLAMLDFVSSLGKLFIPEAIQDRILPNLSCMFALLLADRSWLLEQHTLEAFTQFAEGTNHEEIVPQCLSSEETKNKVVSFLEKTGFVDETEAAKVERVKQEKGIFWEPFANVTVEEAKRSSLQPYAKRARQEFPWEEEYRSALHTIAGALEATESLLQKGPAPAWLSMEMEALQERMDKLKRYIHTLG

[4] = target: T3, FIGNL1 N-terminal 120aa region, 3X-FLAG and SV40 NLS tagged (human), Q6PIW4; details: remark: other sources report otherwise
T3 chain: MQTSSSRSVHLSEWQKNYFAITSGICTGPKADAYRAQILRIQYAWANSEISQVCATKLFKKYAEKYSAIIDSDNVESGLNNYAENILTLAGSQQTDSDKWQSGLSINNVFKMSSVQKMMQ

[5] = target: T4, 3XFlag-RADIF, full length, Q9NSG2; details: remark: other sources report otherwise
T4 chain: T2 sequence

## HA-tagged RAD51 (from UniProt Q06609 1-339)
[1]
  binding: binds

B1: GFP-tagged RADIF (c1orf112) (protein, UniProt Q9NSG2 1-853)
chain: T2 sequence
[2]
  binding: binds

B2: endogenous FIGNL1 (protein, UniProt Q6PIW4 1-674)
chain: T1 sequence
[3]
  binding: binds

B3: FIGNL1-GFP (protein, UniProt Q6PIW4 1-674)
chain: T1 sequence
[3]
  binding: binds

B4: GFP-tagged RADIF (c1orf112), Q9NSG2 1-853 (protein)
chain: T2 sequence
[4]
  binding: binds

B5: HA-tagged RAD51, Q06609 1-339 (protein)
chain: MAMQMQLEANADTSVEEESFGPQPISRLEQCGINANDVKKLEEAGFHTVEAVAYAPKKELINIKGISEAKADKILAEAAKLVPMGFTTATEFHQRRSEIIQITTGSKELDKLLQGGIETGSITEMFGEFRTGKTQICHTLAVTCQLPIDRGGGEGKAMYIDTEGTFRPERLLAVAERYGLSGSDVLDNVAYARAFNTDHQTQLLYQASAMMVESRYALLIVDSATALYRTDYSGRGELSARQMHLARFLRMLLRLADEFGVAVVITNQVVAQVDGAAMFAADPKKPIGGNIIAHASTTRLYLRKGRGETRICKIYDSPCLPEAEAMFAINADGVGDAKD
[5]
  binding: binds
